From the supplement of paper PMC10077471
Whole data set: some 1,900 compounds, median “excess over highest single agent (ExcessHSA) synergy score, 6x6 matrix” near -83, cut for the lowest 2% near -370. This is one part of the list.

tested on: NCI-H446; assay: excess over highest single agent (ExcessHSA) synergy score, 6x6 matrix; higher = less synergy (more negative = stronger synergy); details: 72 h; CellTiter-Glo viability

Row | Structure (SMILES) | excess over highest single agent
1 | O=C(c1ccc(F)cc1)C1CCN(CCn2c(=O)[nH]c3ccccc3c2=O)CC1 + Cc1sc2c(c1C)C(c1ccc(Cl)cc1)=N[C@@H](CC(=O)OC(C)(C)C)c1nnc(C)n1-2 [NCGC00250412-19] | -13.7
2 | C[C@H]1[C@H](C)CC[C@]2(C(=O)O)CC[C@]3(C)C(=CC[C@@H]4[C@@]5(C)CC[C@H](O)C(C)(C)[C@@H]5CC[C@]43C)[C@H]12 + Cc1sc2c(c1C)C(c1ccc(Cl)cc1)=N[C@@H](CC(=O)OC(C)(C)C)c1nnc(C)n1-2 [NCGC00250412-19] | -67.1
3 | O=C(NCCCCN1CCOCC1)c1cc2ccccc2o1 + Cc1sc2c(c1C)C(c1ccc(Cl)cc1)=N[C@@H](CC(=O)OC(C)(C)C)c1nnc(C)n1-2 [NCGC00250412-19] | -147
4 | Oc1ccc(-c2ccc(-c3cc(Nc4cccc(CNC5CC5)c4)n[nH]3)cc2)c(O)c1 + Cc1sc2c(c1C)C(c1ccc(Cl)cc1)=N[C@@H](CC(=O)OC(C)(C)C)c1nnc(C)n1-2 [NCGC00250412-19] | 79.8
5 | Nc1nc2c(ncn2COC(CO)CO)c(=O)[nH]1 + Cc1sc2c(c1C)C(c1ccc(Cl)cc1)=N[C@@H](CC(=O)OC(C)(C)C)c1nnc(C)n1-2 [NCGC00250412-19] | -72.2
6 | CC(NC(C)(C)C)C(=O)c1cccc(Cl)c1 (centres undefined) + Cc1sc2c(c1C)C(c1ccc(Cl)cc1)=N[C@@H](CC(=O)OC(C)(C)C)c1nnc(C)n1-2 [NCGC00250412-19] | 19.5
7 | Cc1csc(-c2nnc(Nc3ccc(Oc4ncccc4-c4ccnc(N)n4)cc3)c3ccccc23)c1 + Cc1sc2c(c1C)C(c1ccc(Cl)cc1)=N[C@@H](CC(=O)OC(C)(C)C)c1nnc(C)n1-2 [NCGC00250412-19] | -193
8 | CN(C)C(=N)NC(=N)N + Cc1sc2c(c1C)C(c1ccc(Cl)cc1)=N[C@@H](CC(=O)OC(C)(C)C)c1nnc(C)n1-2 [NCGC00250412-19] | -158
9 | COc1c(C)cnc(Cn2cnc3c(Cl)nc(N)nc32)c1C + Cc1sc2c(c1C)C(c1ccc(Cl)cc1)=N[C@@H](CC(=O)OC(C)(C)C)c1nnc(C)n1-2 [NCGC00250412-19] | -371
10 | COc1ccc2c(Oc3ccc(NC(=O)c4c(C)n(CC(C)(C)O)n(-c5ccccc5)c4=O)nc3)ccnc2c1 + Cc1sc2c(c1C)C(c1ccc(Cl)cc1)=N[C@@H](CC(=O)OC(C)(C)C)c1nnc(C)n1-2 [NCGC00250412-19] | -44.8
11 | c1ccc2c(CCNc3ccc(Nc4ccncc4)cc3)c[nH]c2c1 + Cc1sc2c(c1C)C(c1ccc(Cl)cc1)=N[C@@H](CC(=O)OC(C)(C)C)c1nnc(C)n1-2 [NCGC00250412-19] | -76.1
12 | NCCCCCC(=O)O + Cc1sc2c(c1C)C(c1ccc(Cl)cc1)=N[C@@H](CC(=O)OC(C)(C)C)c1nnc(C)n1-2 [NCGC00250412-19] | -73.9
13 | CC1=C(C)C(=O)C(C(CCCCCC(=O)O)c2ccccc2)=C(C)C1=O (centres undefined) + Cc1sc2c(c1C)C(c1ccc(Cl)cc1)=N[C@@H](CC(=O)OC(C)(C)C)c1nnc(C)n1-2 [NCGC00250412-19] | -240
14 | Cc1nc2c([nH]1)-c1ccccc1N(C(=O)c1ccc(NC(=O)c3ccccc3-c3ccccc3)cc1)CC2 + Cc1sc2c(c1C)C(c1ccc(Cl)cc1)=N[C@@H](CC(=O)OC(C)(C)C)c1nnc(C)n1-2 [NCGC00250412-19] | -102
15 | CC=CC(=O)N(CC)c1ccccc1C + Cc1sc2c(c1C)C(c1ccc(Cl)cc1)=N[C@@H](CC(=O)OC(C)(C)C)c1nnc(C)n1-2 [NCGC00250412-19] | -84.3
16 | O=C(C1CC1)N1CC[C@@H](Cn2c(-c3ccc(-c4ccc5occc5c4)cc3)nc3cnccc32)C1 + Cc1sc2c(c1C)C(c1ccc(Cl)cc1)=N[C@@H](CC(=O)OC(C)(C)C)c1nnc(C)n1-2 [NCGC00250412-19] | -33.3
17 | Cc1cnc(Nc2ccc(OCCN3CCCC3)cc2)nc1Nc1cccc(S(=O)(=O)NC(C)(C)C)c1 + Cc1sc2c(c1C)C(c1ccc(Cl)cc1)=N[C@@H](CC(=O)OC(C)(C)C)c1nnc(C)n1-2 [NCGC00250412-19] | -181
18 | COc1ccc(-c2nc(N3CCOCC3)c3sc(CN(C)c4ncc(C(=O)NO)cn4)cc3n2)cn1 + Cc1sc2c(c1C)C(c1ccc(Cl)cc1)=N[C@@H](CC(=O)OC(C)(C)C)c1nnc(C)n1-2 [NCGC00250412-19] | -105
19 | C[C@]12C=CC(=O)N[C@@H]1CC[C@@H]1[C@@H]2CC[C@]2(C)[C@@H](C(=O)Nc3cc(C(F)(F)F)ccc3C(F)(F)F)CC[C@@H]12 + Cc1sc2c(c1C)C(c1ccc(Cl)cc1)=N[C@@H](CC(=O)OC(C)(C)C)c1nnc(C)n1-2 [NCGC00250412-19] | -149
20 | CN(C)[C@@H]1C(=O)C(C(N)=O)=C(O)[C@@]2(O)C(=O)C3=C(O)c4c(O)cccc4[C@@](C)(O)[C@H]3C[C@@H]12 + Cc1sc2c(c1C)C(c1ccc(Cl)cc1)=N[C@@H](CC(=O)OC(C)(C)C)c1nnc(C)n1-2 [NCGC00250412-19] | 40.3
21 | CN(C)S(=O)(=O)c1ccc2c(c1)/C(=C/c1cc3c([nH]1)CCCC3)C(=O)N2 + Cc1sc2c(c1C)C(c1ccc(Cl)cc1)=N[C@@H](CC(=O)OC(C)(C)C)c1nnc(C)n1-2 [NCGC00250412-19] | -179
22 | Clc1cccc(Cl)c1NC1=NCCN1 + Cc1sc2c(c1C)C(c1ccc(Cl)cc1)=N[C@@H](CC(=O)OC(C)(C)C)c1nnc(C)n1-2 [NCGC00250412-19] | -13.3
23 | CO[C@H]1/C=C/O[C@@]2(C)Oc3c(C)c(O)c4c(O)c(c5c(nc6cc(C)ccn65)c4c3C2=O)NC(=O)/C(C)=C\C=C\[C@H](C)[C@H](O)[C@@H](C)[C@@H](O)[C@@H](C)[C@H](OC(C)=O)[C@@H]1C + Cc1sc2c(c1C)C(c1ccc(Cl)cc1)=N[C@@H](CC(=O)OC(C)(C)C)c1nnc(C)n1-2 [NCGC00250412-19] | -138
24 | O=P(O)(O)C(O)(Cn1ccnc1)P(=O)(O)O + Cc1sc2c(c1C)C(c1ccc(Cl)cc1)=N[C@@H](CC(=O)OC(C)(C)C)c1nnc(C)n1-2 [NCGC00250412-19] | -67.9

Rewritten as comma-separated lines: entries from further up
Row,Structure (SMILES),excess over highest single agent
13,CC1=C(C)C(=O)C(C(CCCCCC(=O)O)c2ccccc2)=C(C)C1=O (centres undefined) + Cc1sc2c(c1C)C(c1ccc(Cl)cc1)=N[C@@H](CC(=O)OC(C)(C)C)c1nnc(C)n1-2 [NCGC00250412-19],-240
14,Cc1nc2c([nH]1)-c1ccccc1N(C(=O)c1ccc(NC(=O)c3ccccc3-c3ccccc3)cc1)CC2 + Cc1sc2c(c1C)C(c1ccc(Cl)cc1)=N[C@@H](CC(=O)OC(C)(C)C)c1nnc(C)n1-2 [NCGC00250412-19],-102
15,CC=CC(=O)N(CC)c1ccccc1C + Cc1sc2c(c1C)C(c1ccc(Cl)cc1)=N[C@@H](CC(=O)OC(C)(C)C)c1nnc(C)n1-2 [NCGC00250412-19],-84.3
16,O=C(C1CC1)N1CC[C@@H](Cn2c(-c3ccc(-c4ccc5occc5c4)cc3)nc3cnccc32)C1 + Cc1sc2c(c1C)C(c1ccc(Cl)cc1)=N[C@@H](CC(=O)OC(C)(C)C)c1nnc(C)n1-2 [NCGC00250412-19],-33.3
